# Data published in patent publication US20250215015A1 (THE REGENTS OF THE UNIVERSITY OF CALIFORNIA, priority 2022, published 2025).
# Where “and” joins values, the source holds several entries; their conditions need not be identical. Equal values may be shown once.
# Test: Liposomal loading efficiency
# Type: physicochemical
# Conditions: pH gradient reversal, drug/lipid ratio 0.09
smiles,measurement,value
"CN[C@@H]1C[C@H]2O[C@@](C)([C@@H]1OC)n1c3ccccc3c3c4c(c5c6ccccc6n2c5c31)C(=O)N[C@H]4O [UCN-01, 7-hydroxystaurosporine]",liposomal loading efficiency,65% and > 50%
